# PubChem BioAssay AID504808 – Drosophila RNAi Screening Center – 2011
# Purpose: 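Chromatin factors that keep E2F targets switched off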 (primary screen)
# Cell system: Drosophila S2 cells
# Reagents: long dsRNA against Drosophila genes
# Read-out: 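Firefly luciferase driven by E2F sites, normalised to Renilla luciferase on the same minimal promoter, measured by plate reader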
# Direction: E2F firefly: higher = more E2F reporter activity; Renilla normaliser: higher = more normaliser reporter signal
# Rule for the call: 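a knock-down counted as active when the firefly/Renilla E2F signal rose above 50%, a threshold chosen arbitrarily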
# The screen tested about 21,000 reagents; shown is a random part of those that have a named target and a result. Of all reagents, 18 (0.084%) got an active call. 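Raw counts without plate normalisation, one of two replicates; the ratio scores behind the calls were not deposited.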 A plus sign joins genes that one reagent is predicted to hit. The record does not give: the amount of reagent, the time to read-out.
target,dsRNA,"E2F firefly, rep 1","Renilla normaliser, rep 1",call
CG5246,DRSC15751,1.05e5,6053,inactive
Sec5,DRSC00714,68483,4039,inactive
CG17650,DRSC00510,1.59e5,5501,inactive
Elba2,DRSC00731,90235,3821,inactive
Or33a,DRSC03386,94748,3882,inactive
CG13070,DRSC09953,1.55e5,7678,inactive
Taf1,DRSC12607,1.16e5,6149,inactive
Fkbp59,DRSC03323,1.50e5,4644,inactive
Pp2C1,DRSC18699,7674,844,inactive
Smyd3,DRSC17744,1.05e5,4866,inactive
CG6209,DRSC06968,1.01e5,4364,inactive
tex,DRSC16517,1.31e5,6331,inactive
Nepl21,DRSC14133,1955,1104,inactive
CG13054,DRSC09935,1.53e5,9169,inactive
l(2)k05911,DRSC02523,53151,3316,inactive
CG11069,DRSC14289,66584,3558,inactive
Oct-TyrR,DRSC11883,1.24e5,7111,inactive
CG1344,DRSC04837,71449,2977,inactive
Cpr67B,DRSC10373,82609,3050,inactive
eEFSec,DRSC04571,1.08e5,4779,inactive
CalpA,DRSC07352,1.46e5,4982,inactive
Dip-C,DRSC15855,67348,3306,inactive
CG9813,DRSC16569,73490,3429,inactive
MED6,DRSC16500,54842,3150,inactive
CG32269 + CG32270,DRSC08195,1.04e5,4882,inactive
CG7857,DRSC10925,1.56e5,7962,inactive
CG3847,DRSC17444,78755,2484,inactive
CG3847,DRSC18327,8480,616,inactive
PGRP-SC1a,DRSC06482,1.56e5,5278,inactive
karr,DRSC20681,1.36e5,6687,inactive
CG6465,DRSC16046,80166,4183,inactive
CG15864,DRSC15122,1.36e5,6318,inactive
CG6738,DRSC16104,99202,5626,inactive
LamC,DRSC07453,2639,207,inactive
CG14006,DRSC02338,1.48e5,5303,inactive
Cyp12b2,DRSC07364,1.52e5,5427,inactive
jim,DRSC11889,73724,3888,inactive
CG15293,DRSC01919,96972,3944,inactive
DCP2,DRSC10597,53682,170,inactive
CG32447,DRSC11732,82244,3405,inactive
CG32447,DRSC11805,1.31e5,6466,inactive
CG6071,DRSC10579,1.16e5,6827,inactive
mldr,DRSC18100,97937,5081,inactive
CG7236,DRSC03037,1.27e5,4821,inactive
PIG-C,DRSC08241,1.04e5,4203,inactive
Sec22,DRSC18538,2263,680,inactive
Con,DRSC08652,81580,3832,inactive
ND-49,DRSC17151,64234,4260,inactive
CG41020 (retired record),DRSC20866,81918,3285,inactive
CG15695,DRSC15117,1.35e5,7459,inactive
fz3,DRSC18779,1.27e5,5595,inactive
CG5478,DRSC15814,1.22e5,6251,inactive
mtsh,DRSC03070,1.47e5,5137,inactive
CG17742 (retired record),DRSC10285,72438,3177,inactive
Bdp1,DRSC03192,96913,4546,inactive
sas,DRSC12631,1.24e5,5729,inactive
Cyp6w1,DRSC04909,77482,3015,inactive
tup,DRSC03627,82915,4197,inactive
erm,DRSC00700,80847,3516,inactive
ocm,DRSC04360,1.31e5,219,active
Gr89a,DRSC15023,99792,5708,inactive
spdi,DRSC18487,1907,936,inactive
spdi,DRSC18488,62278,3855,inactive
Pde1c,DRSC02421,1.46e5,5170,inactive
Pde1c,DRSC02422,1.44e5,4641,inactive
Pde1c,DRSC02423,1.50e5,4649,inactive
Pde1c,DRSC02424,1.65e5,5152,inactive
Pde1c,DRSC02425,85011,3982,inactive
Pde1c,DRSC02426,82279,3748,inactive
CG31288,DRSC14667,1.17e5,7296,inactive
Tmtc2,DRSC00272,80671,3258,inactive
CG8366,DRSC07153,1.44e5,5312,inactive
bol,DRSC08964,1.32e5,5994,inactive
bol,DRSC10444,87691,3525,inactive
bol,DRSC11329,1.01e5,3579,inactive
kl-3 (retired record),DRSC20730,83809,2617,inactive
kl-3 (retired record),DRSC20891,1.35e5,6116,inactive
kl-3 (retired record),DRSC20934,95875,3719,inactive
HBS1,DRSC08544,87675,4106,inactive
CG13081,DRSC02185,1.10e5,4436,inactive
gzl,DRSC12517,74012,3672,inactive
CG11790,DRSC14390,67044,4353,inactive
CG2962,DRSC18247,7995,824,inactive
spirit,DRSC18202,6898,708,inactive
